Experimental data from paper PMC10008536.
No constants are given. Whether binding was seen depends on the method and setting. For part of these data: In cells and extracts the contact can be indirect. Some binding calls cover weakened binding; strength is not graded here.

By UniProt entry, the sequences of proteins in these tests, tags left out.
UniProt P38398: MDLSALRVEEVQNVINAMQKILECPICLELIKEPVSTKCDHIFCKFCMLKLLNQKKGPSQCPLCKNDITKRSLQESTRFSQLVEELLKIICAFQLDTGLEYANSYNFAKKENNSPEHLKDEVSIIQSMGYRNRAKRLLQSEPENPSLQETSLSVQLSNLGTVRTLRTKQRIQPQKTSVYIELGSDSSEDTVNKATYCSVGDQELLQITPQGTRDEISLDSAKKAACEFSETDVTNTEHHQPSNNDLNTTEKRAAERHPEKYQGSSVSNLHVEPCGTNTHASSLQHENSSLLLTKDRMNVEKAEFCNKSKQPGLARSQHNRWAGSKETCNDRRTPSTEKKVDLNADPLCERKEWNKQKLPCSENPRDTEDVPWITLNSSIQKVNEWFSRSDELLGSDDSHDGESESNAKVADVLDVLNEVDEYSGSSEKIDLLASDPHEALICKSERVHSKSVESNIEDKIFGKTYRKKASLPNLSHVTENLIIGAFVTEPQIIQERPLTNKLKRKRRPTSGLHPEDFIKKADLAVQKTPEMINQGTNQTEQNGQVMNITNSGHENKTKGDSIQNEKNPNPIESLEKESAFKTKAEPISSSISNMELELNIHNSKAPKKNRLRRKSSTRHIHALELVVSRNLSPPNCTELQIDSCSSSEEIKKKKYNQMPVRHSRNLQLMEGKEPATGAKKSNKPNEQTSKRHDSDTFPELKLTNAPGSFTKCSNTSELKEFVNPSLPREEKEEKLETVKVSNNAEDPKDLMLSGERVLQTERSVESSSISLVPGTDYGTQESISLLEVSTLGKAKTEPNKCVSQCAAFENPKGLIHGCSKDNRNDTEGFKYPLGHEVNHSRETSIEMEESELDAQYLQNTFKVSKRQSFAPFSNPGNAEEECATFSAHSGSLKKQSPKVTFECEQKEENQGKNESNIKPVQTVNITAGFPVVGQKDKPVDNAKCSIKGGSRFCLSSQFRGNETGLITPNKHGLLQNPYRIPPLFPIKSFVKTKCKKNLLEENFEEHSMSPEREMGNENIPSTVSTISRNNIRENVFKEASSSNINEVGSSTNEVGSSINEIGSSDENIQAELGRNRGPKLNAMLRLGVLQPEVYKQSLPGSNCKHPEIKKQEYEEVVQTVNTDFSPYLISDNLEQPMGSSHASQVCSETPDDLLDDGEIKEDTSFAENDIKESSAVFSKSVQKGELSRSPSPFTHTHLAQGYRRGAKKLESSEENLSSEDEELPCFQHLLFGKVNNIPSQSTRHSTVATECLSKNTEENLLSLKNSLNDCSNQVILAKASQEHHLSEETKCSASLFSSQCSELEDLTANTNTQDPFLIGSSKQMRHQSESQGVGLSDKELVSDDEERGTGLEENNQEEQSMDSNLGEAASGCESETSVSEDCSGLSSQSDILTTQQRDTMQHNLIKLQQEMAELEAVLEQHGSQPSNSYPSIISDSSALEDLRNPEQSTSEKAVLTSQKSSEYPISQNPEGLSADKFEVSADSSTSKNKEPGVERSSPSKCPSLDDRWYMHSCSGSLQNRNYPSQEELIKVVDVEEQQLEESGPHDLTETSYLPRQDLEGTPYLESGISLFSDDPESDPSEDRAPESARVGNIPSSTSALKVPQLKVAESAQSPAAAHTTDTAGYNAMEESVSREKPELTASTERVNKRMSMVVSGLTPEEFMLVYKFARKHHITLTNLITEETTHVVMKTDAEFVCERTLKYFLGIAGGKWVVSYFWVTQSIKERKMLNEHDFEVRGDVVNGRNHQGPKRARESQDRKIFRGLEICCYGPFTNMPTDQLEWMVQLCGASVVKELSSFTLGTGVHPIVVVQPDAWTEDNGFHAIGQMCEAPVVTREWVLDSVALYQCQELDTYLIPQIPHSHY
UniProt Q96LD4: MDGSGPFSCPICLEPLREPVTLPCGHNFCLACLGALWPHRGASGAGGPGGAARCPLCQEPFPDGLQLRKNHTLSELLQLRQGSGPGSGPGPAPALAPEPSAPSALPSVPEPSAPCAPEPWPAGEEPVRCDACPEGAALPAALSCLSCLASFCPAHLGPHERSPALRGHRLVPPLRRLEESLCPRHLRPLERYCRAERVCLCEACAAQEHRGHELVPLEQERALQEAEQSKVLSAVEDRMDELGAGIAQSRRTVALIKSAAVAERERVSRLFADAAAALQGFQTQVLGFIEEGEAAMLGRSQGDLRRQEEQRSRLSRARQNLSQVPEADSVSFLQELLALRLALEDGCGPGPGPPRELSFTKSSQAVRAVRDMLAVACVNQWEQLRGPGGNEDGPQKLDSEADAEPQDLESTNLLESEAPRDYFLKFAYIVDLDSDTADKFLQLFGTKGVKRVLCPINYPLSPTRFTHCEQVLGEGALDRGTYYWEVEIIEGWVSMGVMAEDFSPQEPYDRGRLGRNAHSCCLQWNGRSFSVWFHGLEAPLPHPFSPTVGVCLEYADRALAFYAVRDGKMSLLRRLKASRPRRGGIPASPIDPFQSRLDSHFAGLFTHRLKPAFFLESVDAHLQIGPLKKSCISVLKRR

Tests used:
[1] = target: Flag-tagged BRCA1 (human) (UniProt P38398); experiment: far-Western, overlay or dot blot; Flag-BRCA1 immunoprecipitated by Flag-tag affinity gel, resolved by SDS-PAGE, transferred to PVDF membrane; recombinant His-TRIM47 added at 1 ug/ml, 4 °C, 18 h; detected with anti-His or anti-Flag antibody; both purified
[2] = target: DNA damage repair protein rH2Ax (human (endogenous in triple-negative breast cancer cells)) (UniProt P16104); experiment: co-IP; reciprocal co-IP of endogenous rH2AX, BRCA1, BARD1 and RAD51 in triple-negative breast cancer cells; cells with overexpression of TRIM47, of the TRIM47 ring-domain mutant or of BRCA1
[3] = target: Breast Cancer susceptibility gene 1 protein (BRCA1), endogenous (human (endogenous in triple-negative breast cancer cells)) (UniProt P38398); experiment: co-IP; endogenous TRIM47 and endogenous BRCA1 in triple-negative breast cancer cells; bait not told

His-tagged recombinant TRIM47 (from UniProt Q96LD4 1-638)
binding [1]: binds

RAD51 (from UniProt Q06609 1-339)
binding [2]: binds

tripartite motif-containing 47 (TRIM47), endogenous (from UniProt Q96LD4 1-638)
binding [3]: binds
